{"source": "paper PMC3481835", "about": "(Clinical pharmacology and therapeutics, 2011)", "origin": "cited, not measured here", "system": "CYP3A4", "conditions": "range printed for the three inhibitors; cited from earlier work", "data": [{"molecule": "CCCCc1oc2ccccc2c1C(=O)c1cc(I)c(OCCN(CC)CC)c(I)c1", "note": "[amiodarone]", "values": [{"measurement": "decrease in urinary 6β-hydroxycortisol to cortisol-ratio", "value": "15-65%"}]}]}
